Data on six sequences can be found in publication PMC10562255.

The chains behind the UniProt entries cited, without tags or fusion partners.
UniProt Q9UH17, whole entry Y13D/Y28S/Y83D/W127S/Y162D/Y191H: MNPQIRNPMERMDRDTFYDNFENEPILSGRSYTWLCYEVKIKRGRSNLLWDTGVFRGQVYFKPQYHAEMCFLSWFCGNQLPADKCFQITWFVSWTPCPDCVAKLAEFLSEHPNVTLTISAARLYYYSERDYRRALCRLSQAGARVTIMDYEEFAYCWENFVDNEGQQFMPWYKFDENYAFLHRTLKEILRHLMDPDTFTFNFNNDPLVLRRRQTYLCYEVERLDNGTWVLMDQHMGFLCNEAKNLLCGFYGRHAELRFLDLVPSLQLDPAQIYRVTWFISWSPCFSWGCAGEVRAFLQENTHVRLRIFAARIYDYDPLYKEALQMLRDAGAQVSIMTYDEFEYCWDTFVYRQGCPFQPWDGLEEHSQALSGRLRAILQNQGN

The exact form of at least one protein or probe is not confirmed. A weaker result is weaker than the reference pair of the same experiment. For part of these data: At least one verdict rests on a figure or table, not on a statement of the authors.

The target of series [1] is A3B Mut2 Y13D,Y28S,Y83D,W127S,Y162D,Y191H (human) (UniProt Q9UH17). The experiment in a line: EMSA with unlabeled competitor. Conditions: defective binding versus WT, Competition EMSA: 25 mM HEPES pH 7.4, 50 mM NaCl, 0.4 U/ul RNase inhibitor, room temperature, 5 min binding plus 10 min with competitor, recombinant protein, protein details: C-terminal mycHis, label: 5' IRDye800CW, unlabeled as competitor. For orientation: Mobility shift assays separate free from complexed probe on a gel.

For series [2], the target named is APOBEC3B (A3B) WT (human) (UniProt Q9UH17). Description: EMSA. Conditions: Competition EMSA: 25 mM HEPES pH 7.4, 50 mM NaCl, 0.4 U/ul RNase inhibitor, room temperature, 5 min binding plus 10 min with competitor, recombinant protein, protein details: C-terminal mycHis.
Where [3] appears, read: NEB2 buffer, strand 3 is RNA, label: 5' IRDye700 on strand 1.

Consider “AUUAGUCAUAUGGAU [short 15-mer ssRNA (A3B RNA EMSA)]”, for which the binding result in series [1] was “binds more weakly”.
Take “GTGAGAGATAGGTGGTTGTATGATGATGAGGTCAGGATAGTAGGATAGTGTGGATAGGTGAG / CTCACCTATCCACACTATCTGTAAGTTAAGTAAGTTGGTGCATACAACCACCTATCTCTCAC / AACAACCACGCACACCAACUUACUUAACUUACA [R-loop (long)]”: the binding result in series [2] (setting [3]) is on record as “binds”.
As to “GTGAGAGATAGGTGGTTGTATGATGATGAGGTCAGGATAGTAGGATAGTGTGGATAGGTGAG [long 62-mer ssDNA]”, in series [2] (label: 5' IRDye700, single-stranded DNA), the binding result was “binds”.
“GTGAGAGATAGGTGGTTGTATGATGATGAGGTCAGGATAGTAGGATAGTGTGGATAGGTGAG (double strand) [long dsDNA]”: the binding result in series [2] (lesser extent than R-loop, ssDNA, ssRNA, label: 5' IRDye700 on strand 1) was “binds more weakly”.
As to “GTGAGAGATAGGTGGTTGTATGATGATGAGGTCAGGATAGTAGGATAGTGTGGATAGGTGAG / CTCACCTATCCACACTATCTGTAAGTTAAGTAAGTTGGTGCATACAACCACCTATCTCTCAC / CACCAACUUACUUAACUUACA [R-loop (short)]”, in series [2] (setting [3]), the binding result is “binds”.
Turning to “ATTAGTCATATGGAT [short 15-mer ssDNA (A3B DNA EMSA)]”, in series [1] (single-stranded DNA), the binding result is listed as “binds more weakly”.
